PubChem BioAssay AID1259308, NCATS – 2017
Test: 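Candidate targets for better recombinant protein yield in mammalian cells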 (primary screen). System: human HEK293 embryonic kidney cells stably expressing firefly luciferase (HEK-CMV-Luc2-Hygro). Knock-down reagent: single siRNA against human genes, 0.8 pmol siRNA per well. Timing: 72 h. Read-out: 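Luciferase light (ONE-Glo) measured on one replicate plate set and viability (CellTiter-Glo) on the other, scaled to a negative control siRNA, with robust z-scores and luciferase per cell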. Direction: total luciferase, z-score and total luciferase, % of control: higher = more reporter protein produced; luciferase per cell, z-score: higher = more reporter output per viable cell; viable cells, % of control: higher = more viable cells. Active means: 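Active when the median/MAD z-score for overall luciferase is greater than 3; a gene was taken forward for validation with new siRNAs if at least two of its three siRNAs passed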. Meaning of the calls: active = raised luciferase; inactive = no rise.
The whole screen tested about 59,000 reagents; this is a random part of them. About 1,510 of all reagents (2.6%) count as active. 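Calls use total luciferase alone and ignore viability, so some active siRNAs may act by altering cell number.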 Unmarked entries are inactive. The numbers tell different reagents against one gene apart.

The opening 6 records, to show the layout:
| target gene | reagent no. | total luciferase, z-score | total luciferase, % of control | luciferase per cell, z-score | viable cells, % of control |
| --- | --- | --- | --- | --- | --- |
| SULT1B1 (sulfotransferase family 1B member 1) | 1 | 0.234 | 86.5 | -0.499 | 110 |
| SULT1B1 (sulfotransferase family 1B member 1) | 2 | 1.59 | 114 | 0.763 | 104 |
| SULT1B1 (sulfotransferase family 1B member 1) | 3 | -0.222 | 77.5 | -0.12 | 89.3 |
| MOB3C (MOB kinase activator 3C) | 1 | 3.45 (active) | 151 | 2.02 | 98.9 |
| MOB3C (MOB kinase activator 3C) | 2 | -0.716 | 67.7 | 0.998 | 58.1 |
| MOB3C (MOB kinase activator 3C) | 3 | -0.427 | 73.4 | -0.143 | 85.2 |

The listing, repeating the preview:
| target gene | reagent no. | total luciferase, z-score | total luciferase, % of control | luciferase per cell, z-score | viable cells, % of control |
| --- | --- | --- | --- | --- | --- |
| SULT1B1 (sulfotransferase family 1B member 1) | 1 | 0.234 | 86.5 | -0.499 | 110 |
| SULT1B1 (sulfotransferase family 1B member 1) | 2 | 1.59 | 114 | 0.763 | 104 |
| SULT1B1 (sulfotransferase family 1B member 1) | 3 | -0.222 | 77.5 | -0.12 | 89.3 |
| MOB3C (MOB kinase activator 3C) | 1 | 3.45 (active) | 151 | 2.02 | 98.9 |
| MOB3C (MOB kinase activator 3C) | 2 | -0.716 | 67.7 | 0.998 | 58.1 |
| MOB3C (MOB kinase activator 3C) | 3 | -0.427 | 73.4 | -0.143 | 85.2 |
| UBE2S (ubiquitin conjugating enzyme E2 S) | 1 | -1.2 | 57.9 | -1.34 | 92.2 |
| UBE2S (ubiquitin conjugating enzyme E2 S) | 2 | -0.118 | 79.5 | -0.588 | 104 |
| UBE2S (ubiquitin conjugating enzyme E2 S) | 3 | -0.849 | 65 | -0.705 | 87.5 |
| ZNF70 (zinc finger protein 70) | 1 | -0.405 | 73.8 | -0.401 | 91.7 |
| ZNF70 (zinc finger protein 70) | 2 | 0.294 | 87.7 | 2.15 | 55.6 |
| ZNF70 (zinc finger protein 70) | 3 | -0.303 | 75.9 | 0.163 | 81.2 |
| ZNF233 (zinc finger protein 233) | 1 | -0.747 | 67 | -0.307 | 81.2 |
| ZNF233 (zinc finger protein 233) | 2 | 2.57 | 133 | 2.53 | 76.2 |
| ZNF233 (zinc finger protein 233) | 3 | 1.41 | 110 | 1.12 | 91.6 |
| ADIPOR2 (adiponectin receptor 2) | 1 | 1.59 | 114 | 1.41 | 87.5 |
| ADIPOR2 (adiponectin receptor 2) | 2 | 2.48 | 131 | 1.99 | 86.7 |
| ADIPOR2 (adiponectin receptor 2) | 3 | 0.0535 | 83 | -0.391 | 103 |
| FGF20 (fibroblast growth factor 20) | 1 | 1.92 | 120 | 0.375 | 122 |
| FGF20 (fibroblast growth factor 20) | 2 | 0.273 | 87.3 | 0.107 | 94.9 |
| FGF20 (fibroblast growth factor 20) | 3 | -1.11 | 59.9 | -0.737 | 81.2 |
| SDF4 (stromal cell derived factor 4) | 1 | 0.383 | 89.5 | 1.53 | 66.9 |
| SDF4 (stromal cell derived factor 4) | 2 | 0.204 | 85.9 | 0.407 | 86.3 |
| SDF4 (stromal cell derived factor 4) | 3 | 1.28 | 107 | 1.1 | 89.8 |
| EIF2B4 (eukaryotic translation initiation factor 2B subunit delta) | 1 | 0.062 | 83.1 | -0.0649 | 94.5 |
| EIF2B4 (eukaryotic translation initiation factor 2B subunit delta) | 2 | -1.8 | 46.1 | -1.96 | 86.4 |
| EIF2B4 (eukaryotic translation initiation factor 2B subunit delta) | 3 | -1.27 | 56.7 | 0.135 | 61.1 |
| EPHA5 (EPH receptor A5) | 1 | -0.771 | 66.5 | -0.526 | 85.4 |
| EPHA5 (EPH receptor A5) | 2 | -0.33 | 75.3 | -1.04 | 111 |
| EPHA5 (EPH receptor A5) | 3 | -0.405 | 73.8 | -0.402 | 91.7 |
| ZKSCAN7 (zinc finger with KRAB and SCAN domains 7) | 1 | 0.17 | 85.3 | 0.542 | 82.6 |
| ZKSCAN7 (zinc finger with KRAB and SCAN domains 7) | 2 | -0.572 | 70.5 | -0.382 | 87.1 |
| ZKSCAN7 (zinc finger with KRAB and SCAN domains 7) | 3 | -2.05 | 41 | -1.67 | 71.2 |
| FKBP14 (FKBP prolyl isomerase 14) | 1 | 0.1 | 83.9 | 0.00133 | 93.7 |
| FKBP14 (FKBP prolyl isomerase 14) | 2 | 3.85 (active) | 159 | 2 | 105 |
| FKBP14 (FKBP prolyl isomerase 14) | 3 | -1.16 | 58.8 | -0.0923 | 67.4 |
| CNTNAP3 (contactin associated protein family member 3) | 1 | -0.127 | 79.4 | -0.235 | 94.3 |
| CNTNAP3 (contactin associated protein family member 3) | 2 | -1.5 | 52.1 | -1.84 | 94.4 |
| CNTNAP3 (contactin associated protein family member 3) | 3 | -2 | 42.1 | -0.648 | 55.8 |
| SAMD8 (sterile alpha motif domain containing 8) | 1 | 0.589 | 93.6 | 1.35 | 73.4 |
| SAMD8 (sterile alpha motif domain containing 8) | 2 | 0.135 | 84.6 | -0.0256 | 95.1 |
| SAMD8 (sterile alpha motif domain containing 8) | 3 | 0.142 | 84.7 | -0.311 | 103 |
| ARHGAP11B (Rho GTPase activating protein 11B) | 1 | -1.17 | 58.7 | -1.27 | 91.5 |
| ARHGAP11B (Rho GTPase activating protein 11B) | 2 | 0.08 | 83.5 | -0.387 | 103 |
| ARHGAP11B (Rho GTPase activating protein 11B) | 3 | -0.889 | 64.2 | -0.433 | 80.4 |
| ELOVL2 (ELOVL fatty acid elongase 2) | 1 | 0.468 | 91.2 | 0.354 | 92.8 |
| ELOVL2 (ELOVL fatty acid elongase 2) | 2 | 0.495 | 91.7 | -0.468 | 116 |
| ELOVL2 (ELOVL fatty acid elongase 2) | 3 | -0.344 | 75 | -0.0488 | 84.9 |
| DYNLRB2 (dynein light chain roadblock-type 2) | 1 | -0.0962 | 80 | -0.882 | 113 |
| DYNLRB2 (dynein light chain roadblock-type 2) | 2 | -0.851 | 65 | -0.889 | 91.7 |
| DYNLRB2 (dynein light chain roadblock-type 2) | 3 | -1.42 | 53.6 | -1.52 | 89.4 |
| ATXN3L (ataxin 3 like) | 1 | 0.521 | 92.2 | 0.277 | 95.8 |
| ATXN3L (ataxin 3 like) | 2 | -0.409 | 73.7 | -0.613 | 96.8 |
| ATXN3L (ataxin 3 like) | 3 | -1.33 | 55.5 | -1.24 | 86 |
| KRTAP4-5 (keratin associated protein 4-5) | 1 | 0.0442 | 82.8 | -0.607 | 109 |
| KRTAP4-5 (keratin associated protein 4-5) | 2 | -0.136 | 79.2 | -0.328 | 96.5 |
| KRTAP4-5 (keratin associated protein 4-5) | 3 | 2.68 | 135 | 2.25 | 83.6 |
